This note sets out measurements from US10052289B2, “Composition comprising an active agent with low aqueous solubility” (Flamel Ireland Limited, priority 2008, dated 2018).

One data set in a line: physchem. The following applies: pH 7, aqueous with cosolvent or surfactant or cyclodextrin.
For data set [1] the following is noted: pH 7.

Each structure is given as a SMILES string. Values after ≈ are worked out from the molar mass of the structure shown.

As a reminder, the solubility is the dissolved amount per volume that the medium holds. Lower therefore signals little dissolved substance. On to `COC(=O)C1=C(C)NC(C)=C(C(=O)OC)C1c1ccccc1[N+](=O)[O-]` [Nifedipine, nifedipine], for which, in “physchem”, the solubility came out at 867 µM (≈ 300 µg/mL). Besides, the “Solubilized active ingredient in μmol per g of polymer” value in data set [1] is on record as 43 μmol per g of polymer.
